Measurements taken from patent US20040224981A1, “Antibacterial methods and compositions” (priority 2003, published 2004).
At least one structure is not confirmed: it was looked up by name or label, or the drawing left a doubt.

Test system: staphylococcal isolates
Assay: Selection of spontaneous resistant mutants from seven staphylococcal isolates
Assay type: cell-based, staphylococci
Details: 10^9 CFU, agent at 1 μg/mL, incubation 48 hours (FIG. 3)

## C=C(F)c1sc(CNCCCNc2cc(=O)c3ccccc3[nH]2)c(C)c1Br [MRSi Cmpd 5, N-(4-bromo-5-(1-fluorovinyl)-3-methylthiophen-2-ylmethyl)-N′-(1H-quinolin-4-one)propane-1,3-diamine]
  resistance frequencies: 3.3××10^31 9 to 1.35×10^−7
